Data as given in US20230416410A1.
Numbering of substitutions follows the chain as printed. These are yes or no findings as the source states them, for the method shown. Some results given as binding are weak or reduced against the parent protein; the word gives no strength. Sequences can lack the tags named with a protein.

T1: recombinant bovine FcgR2 (bovine) (UniProt Q28110)
T1 sequence (chain, biotin on the BAP tag (BirA)): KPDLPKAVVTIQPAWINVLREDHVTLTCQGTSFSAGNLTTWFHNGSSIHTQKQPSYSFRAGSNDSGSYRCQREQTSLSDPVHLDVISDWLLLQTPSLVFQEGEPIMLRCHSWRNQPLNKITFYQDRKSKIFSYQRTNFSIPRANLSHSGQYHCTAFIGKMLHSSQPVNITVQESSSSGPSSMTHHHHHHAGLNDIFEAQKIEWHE

T2: recombinant bovine FcgR3 (bovine) (UniProt P79107)
T2 sequence (chain, biotin on the BAP tag (BirA)): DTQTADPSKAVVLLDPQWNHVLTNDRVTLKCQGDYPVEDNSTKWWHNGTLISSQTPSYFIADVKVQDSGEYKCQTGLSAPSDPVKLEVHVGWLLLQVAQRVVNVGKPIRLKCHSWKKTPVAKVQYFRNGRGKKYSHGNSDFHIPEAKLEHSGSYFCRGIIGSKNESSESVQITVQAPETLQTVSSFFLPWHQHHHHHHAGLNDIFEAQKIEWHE

B1: CTLA4 Fc bIgG1b (Fc fusion)
chain: DMHVAQPAVVLASSRGVASFVCEYGSSGNAAEVRVTVLRQAGSQMTEVCAATYTVEDELAFLDDSTCTGTSSGNKVNLTIQGLRAMDTGLYICKVELMYPPPYYVGMGNGTQIYVIDPEPCPDSDDPTCKPSPCDCCPPPELPGGPSVFIFPPKPKDTLTISGTPEVTCVVVDVGHDDPEVKFSWFVDDVEVNTATTKPREEQFNSTYRVVSALRIQHQDWTGGKEFKCKVHNEGLPAPIVRTISRTKGPAREPQVYVLAPPQEELSKSTVSLTCMVTSFYPDYIAVEWQRNGQPESEDKYGTTPPQLDADSSYFLYSKLRVDRNSWQEGDTYTCVVMHEALHNHYTQKSTSKSAGK
B2: CTLA4 Fc bIgG3b (Fc fusion)
chain: DMHVAQPAVVLASSRGVASFVCEYGSSGNAAEVRVTVLRQAGSQMTEVCAATYTVEDELAFLDDSTCTGTSSGNKVNLTIQGLRAMDTGLYICKVELMYPPPYYVGMGNGTQIYVIDPEPCPDSDTARRPVPTTPKTTIPPGKPTTQESEVEKTPCQCSKCPEPLGGLSVFIFPPKPKDTLTISGTPEVTCVVVDVGQDDPEVQFSWFVDDVEVHTARTKPREEQFNSTYRVVSALRIQHQDWLQGKEFKCKVNNKGLPAPIVRTISRTKGQAREPQVYVLAPPREELSKSTLSLTCLITGFYPEEIDVEWQRNGQPESEDKYHTTAPQLDADGSYFLYSRLRVNKSSWQEGDHYTCAVMHEALRNHYKEKSISRSPGK
B3: CTLA4 Fc bIgG1bWinSS (Fc fusion)
chain: B1 chain with L142A, P143A, G145A, A238S, P239S
B4: CTLA4 Fc bIgG1bWin (Fc fusion)
chain: B1 chain with L142A, P143A, G145A
B5: CTLA4 Fc bIgG1bWinSAS (Fc fusion)
chain: B1 chain with L142A, P143A, G145A, P237S, P239S
B6: CTLA4 Fc bIgG1bSAS (Fc fusion)
chain: B1 chain with P237S, P239S
B7: CTLA4 Fc bIgG1bSAP (Fc fusion)
chain: B1 chain with P237S
B8: CTLA4 Fc bIgG3bWin (Fc fusion)
chain: B2 chain with P164A, L165A, G167A
B9: CTLA4 Fc bIgG3bWinSAS (Fc fusion)
chain: B2 chain with P164A, L165A, G167A, P259S, P261S
B10: CTLA4 Fc bIgG3bSAS (Fc fusion)
chain: B2 chain with P259S, P261S
B11: CTLA4 Fc bIgG3bSAP (Fc fusion)
chain: B2 chain with P259S

The binders below were run against T1, recombinant bovine FcgR2 (bovine) (assay: SPR Biacore).

binding, binds:
B1, B2

Each binder was assayed against T2, recombinant bovine FcgR3 (bovine) (assay: SPR Biacore).

binding, binds:
B1, B2

The binders below were run against T1, recombinant bovine FcgR2 (bovine) (assay: SPR Biacore, receptor on SA sensor; LS = low signal, indicating very weak binding).

binding, binds:
B3

These binders were tested against T2, recombinant bovine FcgR3 (bovine) in the same assay as above.

binding, binds:
B4, B3, B5, B6, B7, B8, B9, B10, B11
